Results are given in words; binding and its absence hold for the method and conditions named. In cells and extracts the contact can be indirect. For some of these results: A result given as binding can be weak or reduced; the word gives no strength. Sequences can lack the tags named with a protein.
What was measured:
[1] = molecular target: 5Myc-6His-hBMAL1-C (BMAL1 514-594) (human); test: co-IP; HEK-293T cells co-transfected with 5Myc-6His-BMAL1 constructs and CHR-cpVenus constructs; lysed in IP buffer (10 mM Tris pH 7.5, 150 mM NaCl, 1 mM EDTA, 1% Triton X-100, 0.1% sodium deoxycholate); immunoprecipitated with mouse anti-Myc antibodies, detected with anti-GFP antibodies
[2] = molecular target: 5Myc-6His-hBMAL1-C shorter version (BMAL1 579-626) (human); test: as above

B1: CHR-cpVenus (full-length CHRONO fused to cpVenus on the C-terminus) (protein, UniProt Q8N365 1-385)
chain: MDSPSSVSSYSSYSLSSSFPTSPVNSDFGFPSDSEREDKGAHGPRPDTVGQRGGSRPSPGPIRCRHRSKVSGNQHTPSHPKQRGSASPMAGSGAKRSRDGELETSLNTQGCTTEGDLLFAQKCKELQGFIPPLTDLLNGLKMGRFERGLSSFQQSVAMDRIQRIVGVLQKPQMGERYLGTLLQVEGMLKTWFPQIAAQKSSLGGGKHQLTKHFPSHHSDSAASSPASPMEKMDQTQLGHLALKPKQPWHLTQWPAMNLTWIHTTPICNPPLSSPGTISFSHGPLGTGTGIGVILFLQHGVQPFTHSAPTTPVPPTTASPVIPGEPMKLSGEGPRCYSLPVTLPSDWSYTLSPPSLPTLARKMTIGHREQQRSHPPVAADAHLLNL
binding [1]: no binding
binding [2]: binds

B2: CHRH3-cpVenus (CHRONO 111-264) (domain or fragment, UniProt Q8N365 111-264)
chain: CTTEGDLLFAQKCKELQGFIPPLTDLLNGLKMGRFERGLSSFQQSVAMDRIQRIVGVLQKPQMGERYLGTLLQVEGMLKTWFPQIAAQKSSLGGGKHQLTKHFPSHHSDSAASSPASPMEKMDQTQLGHLALKPKQPWHLTQWPAMNLTWIHTT
binding [2]: binds weakly

B3: CHRH4-cpVenus (CHRONO 111-298) (domain or fragment, UniProt Q8N365 111-298)
chain: CTTEGDLLFAQKCKELQGFIPPLTDLLNGLKMGRFERGLSSFQQSVAMDRIQRIVGVLQKPQMGERYLGTLLQVEGMLKTWFPQIAAQKSSLGGGKHQLTKHFPSHHSDSAASSPASPMEKMDQTQLGHLALKPKQPWHLTQWPAMNLTWIHTTPICNPPLSSPGTISFSHGPLGTGTGIGVILFLQH
binding [2]: binds

Reference: publication PMC7177903
